PubChem BioAssay AID602196 – INSERM | 2012

- Test: 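Genes whose knock-down alters cisplatin killing of lung cancer cells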
- Cell system: human A549 lung cancer cells
- Knock-down reagent: siRNA pair against human genes
- Duration: 48 h transfection before cisplatin; time from cisplatin to read-out not stated
- Conditions: cisplatin at a dose killing half of control-siRNA cells; exact dose and duration not given
- Detection: 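Shift in cisplatin death relative to control siRNA, from -50 (all cells die) to +50 (no cells die); siRNAs harmful on their own scored 0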
- Reading the numbers: two-siRNA summed score (-2 to +2): higher = both siRNAs protect from cisplatin killing; -2 means both sensitise; mean protection from cisplatin (shift in death) and protection from cisplatin (shift in death), siRNA C and protection from cisplatin (shift in death), siRNA D: higher = protection from cisplatin killing
- Call rule: 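Each siRNA scores 0 if harmful alone by LDH or WST-1, otherwise +1 if it reduces and -1 if it increases cisplatin killing; a gene is active when both siRNAs agree (sum +2 or -2)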
- Calls: active = both siRNAs shift cisplatin killing the same way; inactive = no consistent shift, or siRNA harmful alone
The whole screen tested about 23,000 reagents; below is an unselected part. 455 of them (2%) were called active. 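Active includes both protection and sensitisation; some change values fall well beyond the stated -50 to +50 range.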 Reagent sequences are not shown. Not given: the amount of reagent.

| Target gene | two-siRNA summed score (-2 to +2) | mean protection from cisplatin (shift in death) (%) | protection from cisplatin (shift in death), siRNA C (%) | protection from cisplatin (shift in death), siRNA D (%) | outcome |
| --- | --- | --- | --- | --- | --- |
| KCNA1 (potassium voltage-gated channel subfamily A member 1) | 0 | -0.8 | 0.1 | -1.6 | inactive |
| ACSS2 (acyl-CoA synthetase short chain family member 2) | 0 | 17.9 | 20.4 | 15.4 | inactive |
| CFAP100 (cilia and flagella associated protein 100) | 0 | -3.7 | 2.9 | -10.4 | inactive |
| AKR1C4 (aldo-keto reductase family 1 member C4) | 0 | 19.6 | 11.4 | 27.8 | inactive |
| LOC391769 | 0 | -3.7 | -9.6 | 2.2 | inactive |
| TSPAN6 (tetraspanin 6) | 0 | 11.1 | 6.7 | 15.5 | inactive |
| GLB1L3 (galactosidase beta 1 like 3) | 0 | -5.2 | -4.4 | -6 | inactive |
| LOC392089 | 0 | 2.1 | -1.6 | 5.9 | inactive |
| CHRDL1 (chordin like 1) | 1 | 7.4 | 12 | 2.9 | inactive |
| CEACAM4 (CEA cell adhesion molecule 4) | 2 | 28.2 | 27.7 | 28.6 | active |
| MRPS10 (mitochondrial ribosomal protein S10) | 0 | 0.8 | 2.8 | -1.2 | inactive |
| MAGIX (MAGI family member, X-linked) | 0 | -5.9 | -8.4 | -3.4 | inactive |
| LOC402485 | 0 | 9.5 | 15.2 | 3.7 | inactive |
| MRPL2 (mitochondrial ribosomal protein L2) | 0 | 3 | 3.1 | 2.9 | inactive |
| NBPF14 (NBPF member 14) | 1 | 39.7 | 42.5 | 36.9 | inactive |
| MICALL2 (MICAL like 2) | 0 | -0.3 | -14.7 | 14.1 | inactive |
| SLC39A4 | 0 | 10 | 10.1 | 9.9 | inactive |
| CTSB (cathepsin B) | 0 | 0 | -9.3 | 9.3 | inactive |
| M1AP (meiosis 1 associated protein) | 0 | -4.1 | -0.2 | -7.9 | inactive |

Continued; the last 5 above are carried over.
| Target gene | two-siRNA summed score (-2 to +2) | mean protection from cisplatin (shift in death) (%) | protection from cisplatin (shift in death), siRNA C (%) | protection from cisplatin (shift in death), siRNA D (%) | outcome |
| --- | --- | --- | --- | --- | --- |
| NBPF14 (NBPF member 14) | 1 | 39.7 | 42.5 | 36.9 | inactive |
| MICALL2 (MICAL like 2) | 0 | -0.3 | -14.7 | 14.1 | inactive |
| SLC39A4 | 0 | 10 | 10.1 | 9.9 | inactive |
| CTSB (cathepsin B) | 0 | 0 | -9.3 | 9.3 | inactive |
| M1AP (meiosis 1 associated protein) | 0 | -4.1 | -0.2 | -7.9 | inactive |
| HNRNPCL2 (heterogeneous nuclear ribonucleoprotein C like 2) | 0 | 10.7 | 15.4 | 6.1 | inactive |
| LOC440255 | 1 | 10.5 | 4.6 | 16.5 | inactive |
| SLFN13 (schlafen family member 13) | 0 | -4.1 | 8.2 | -16.4 | inactive |
| SLC16A1 | 0 | 7.7 | 6.3 | 9 | inactive |
| ZNF286A (zinc finger protein 286A) | 1 | 16.6 | 13.4 | 19.7 | inactive |
| TP63 (tumor protein p63) | 0 | 8.4 | 11.7 | 5 | inactive |
| DLEU1 (deleted in lymphocytic leukemia 1) | 1 | 2.4 | 9.8 | -5.1 | inactive |
| C8G (complement C8 gamma chain) | 1 | 18.5 | 16 | 21 | inactive |
| ZFYVE19 (zinc finger FYVE-type containing 19) | 0 | 3.3 | -5.7 | 12.3 | inactive |
| OR51L1 (olfactory receptor family 51 subfamily L member 1) | 1 | 9.8 | 0 | 19.6 | inactive |
| CYP3A7 (cytochrome P450 family 3 subfamily A member 7) | 0 | 2 | 11.5 | -7.6 | inactive |
| MORC4 (MORC family CW-type zinc finger 4) | 0 | 13.9 | 14 | 13.9 | inactive |
| SORBS2 (sorbin and SH3 domain containing 2) | 0 | -4.1 | -2.4 | -5.8 | inactive |
| USP5 (ubiquitin specific peptidase 5) | -1 | -21.7 | -11.4 | -32 | inactive |
| HRNR (hornerin) | 1 | 7.1 | -7.8 | 22.1 | inactive |
| KYAT1 (kynurenine aminotransferase 1) | 0 | 1.3 | 1.6 | 1 | inactive |
| GSTO2 (glutathione S-transferase omega 2) | -1 | -2.6 | 11 | -16.1 | inactive |
| SH3KBP1 (SH3 domain containing kinase binding protein 1) | 1 | 15.1 | 18.6 | 11.6 | inactive |
| UBAP2L (ubiquitin associated protein 2 like) | 0 | 3.1 | 7.3 | -1.1 | inactive |
| LOC400216 | 0 | 3 | 3.4 | 2.6 | inactive |
